Read-outs that look alike come from different tables or passages of the source. The match of structure and compound is tentative.
Assays:
NAMPT = NAMPT (Homo sapiens, UniProt P43490); test: Biochemical inhibition assay: NAMPT enzymatic reaction, NMN quantified by mass spectrometry
A2780 cells = test: In-vitro cell proliferation assay (SRB), A2780 cells; format: cell-based
[1] = read-out: Biochem IC50, NAMPT enzymatic reaction
[2] = read-out: A2780 IC50, 72 hours, SRB assay
[3] = read-out: A2780 IC50 uM, 72 hours, SRB
[4] = read-out: Biochem IC50 uM, NAMPT enzymatic assay
[5] = read-out: Biochem IC50 uM, NAMPT enzymatic reaction

Sequences of proteins named here, by UniProt entry; tags and fusion partners are left off.
UniProt P43490, whole entry: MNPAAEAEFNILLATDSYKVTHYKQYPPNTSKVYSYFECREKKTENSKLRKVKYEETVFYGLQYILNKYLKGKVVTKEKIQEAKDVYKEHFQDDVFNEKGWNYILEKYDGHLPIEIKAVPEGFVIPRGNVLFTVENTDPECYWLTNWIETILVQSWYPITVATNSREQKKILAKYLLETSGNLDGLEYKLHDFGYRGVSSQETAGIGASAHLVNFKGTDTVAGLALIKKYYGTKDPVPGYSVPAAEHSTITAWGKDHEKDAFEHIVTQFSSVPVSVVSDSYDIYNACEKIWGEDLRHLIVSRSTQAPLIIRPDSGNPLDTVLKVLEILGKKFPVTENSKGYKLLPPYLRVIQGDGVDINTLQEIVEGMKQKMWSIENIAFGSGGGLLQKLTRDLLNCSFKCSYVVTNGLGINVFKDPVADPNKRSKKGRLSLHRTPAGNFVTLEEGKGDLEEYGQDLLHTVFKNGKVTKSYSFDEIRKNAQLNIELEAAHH

Compound | IC50 (NAMPT; [1]) | IC50 (A2780 cells; [2]) | IC50 (A2780 cells; [3]) | other results
O=C(NCc1ccc(S(=O)(=O)c2ccccc2)cc1)c1ccc2nnnn2c1 | 0.447 µM | > 30 µM | – | –
O=C(NCc1ccc(S(=O)(=O)c2ccccc2)cc1)c1cnc2nc[nH]c2c1 | 5.78 µM | > 10 µM | – | –
CCOc1cc(F)ccc1S(=O)(=O)c1ccc(CNC(=O)c2cnc3nccn3c2)cc1 | – | – | 0.0143 µM | –
CN(C)c1ncc(S(=O)(=O)c2ccc(CNC(=O)c3ccc4nccn4c3)cc2)cn1 | – | – | 0.0036 µM | IC50 (NAMPT; [4]): 0.0229 µM
CCCCOc1cccc(F)c1S(=O)(=O)c1ccc(CNC(=O)c2ccc3nccn3c2)cc1 | – | – | – | IC50 (NAMPT; [5]): 0.0053 µM
O=C(NCc1ccc(S(=O)(=O)c2ccccc2)cc1)c1c[nH]c2cnccc12 | > 10 µM | > 10 µM | – | –
Cc1cn(C)c(S(=O)(=O)c2ccc(CNC(=O)c3cnc4nccn4c3)cc2)n1 | – | – | 1 to 10 µM | IC50 (NAMPT; [4]): 0.0316 µM
COc1cc(F)c(F)cc1S(=O)(=O)c1ccc(CNC(=O)c2cc3ccncc3o2)cc1 | – | – | 0.0259 µM | IC50 (NAMPT; [5]): 0.0281 µM
O=C(NCc1ccc(S(=O)(=O)Nc2ccccc2OCCO)cc1)c1cc2cnccc2[nH]1 | 19.6 µM | 23.9 µM | – | –
O=C(CCc1cccnc1)Nc1ccc(S(=O)(=O)N2CCCCC2)cc1 | 0.003 µM | – | – | –
CC(C)NC(=O)c1cccc(S(=O)(=O)c2ccc(CNC(=O)c3cc4ccncc4s3)cc2)c1 | – | – | – | IC50 (NAMPT; [4]): 0.0027 µM

From US12336981B2, “Compounds and compositions for the inhibition of NAMPT” (Valo Health, Inc., priority 2010, dated 2025)
